The record followed here is paper PMC12627868.

Sequences of proteins named here, by UniProt entry; tags and fusion partners are left off.
UniProt Q9Z2N8: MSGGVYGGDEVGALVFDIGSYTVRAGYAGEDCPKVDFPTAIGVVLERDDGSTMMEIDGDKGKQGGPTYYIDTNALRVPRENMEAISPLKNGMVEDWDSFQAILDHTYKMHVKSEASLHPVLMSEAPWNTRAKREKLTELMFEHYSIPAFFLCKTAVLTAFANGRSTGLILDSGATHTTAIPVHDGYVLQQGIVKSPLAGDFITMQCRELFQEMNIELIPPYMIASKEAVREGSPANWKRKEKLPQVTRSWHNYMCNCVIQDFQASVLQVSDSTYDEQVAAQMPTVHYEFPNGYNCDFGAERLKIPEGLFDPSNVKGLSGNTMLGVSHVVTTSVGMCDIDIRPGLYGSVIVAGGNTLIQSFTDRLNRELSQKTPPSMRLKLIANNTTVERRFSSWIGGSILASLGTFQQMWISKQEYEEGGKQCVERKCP
UniProt P48432: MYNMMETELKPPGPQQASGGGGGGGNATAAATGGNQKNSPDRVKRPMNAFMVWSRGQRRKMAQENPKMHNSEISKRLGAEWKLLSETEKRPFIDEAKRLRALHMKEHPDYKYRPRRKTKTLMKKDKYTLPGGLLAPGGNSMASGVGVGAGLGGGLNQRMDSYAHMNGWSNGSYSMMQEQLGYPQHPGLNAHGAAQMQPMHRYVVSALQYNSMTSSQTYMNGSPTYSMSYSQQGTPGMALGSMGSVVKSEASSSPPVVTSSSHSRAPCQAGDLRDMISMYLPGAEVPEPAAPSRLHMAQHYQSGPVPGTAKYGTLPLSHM

Results are given in words; binding and its absence hold for the method and conditions named. In cells and extracts the contact can be indirect. Some entries that bind do so weakly or less than the wild type.

This experiment addresses Actin-like protein 6A (Actl6a) (mouse (endogenous in primary neurons)) (UniProt Q9Z2N8). The experiment can be described thus: co-IP; cell lysates incubated overnight at 4 °C with antibodies to Actl6a (ab3882) and Sox2 (ab171380); immune complexes captured on Protein A/G beads and analysed by Western blot; primary neurons (Fig. 6C).

Regarding Sox2 (from UniProt P48432 1-319), the binding result is “binds”.
